Measured values from patent publication US20110053969A1, “NOVEL DIAZASIPIROAKANES AND THEIR USE FOR TREATMENT OF CCR8 MEDIATED DISEASES” (ASTRAZENECA AB, priority 2005, published 2011).

Sequences of proteins named here, by UniProt entry; tags and fusion partners are left off.
UniProt P51685, whole entry: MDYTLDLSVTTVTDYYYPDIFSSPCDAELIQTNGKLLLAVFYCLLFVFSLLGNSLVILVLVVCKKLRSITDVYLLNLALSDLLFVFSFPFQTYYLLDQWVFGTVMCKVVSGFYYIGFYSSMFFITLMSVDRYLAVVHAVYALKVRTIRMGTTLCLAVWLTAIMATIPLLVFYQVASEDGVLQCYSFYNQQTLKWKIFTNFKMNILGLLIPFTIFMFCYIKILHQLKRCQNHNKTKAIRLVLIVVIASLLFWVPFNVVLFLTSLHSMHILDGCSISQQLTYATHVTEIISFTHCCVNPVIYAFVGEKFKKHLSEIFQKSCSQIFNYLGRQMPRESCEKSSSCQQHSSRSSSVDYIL

Legend:
[1] = Human microsomal stability assay; format: in vitro ADME; settings: human microsomes (Xenotech), 1 mg microsomal protein/mL, 2.5 μM compound, 2 mM NADPH, pH 7.4, 37° C., read-out: Human Microsomal Stability (intrinsic Clearance, CLint)
Experimental: Human Microsomal Stability Assay
The assay is run in a 96-deepwell format at 1 mg microsomal protein (Xenotech)/mL in potassium phosphate buffer (pH 7.4) with a compound concentration of 2.5 μM and a NADPH concentration of 2 mM. Samples at four time-points (0, 5, 15 and 30 minutes) are withdrawn and the enzymatic reaction is terminated by protein precipitation with 1% acetic acid in acetonitrile. The incubations are performed on a thermostated plate (37° C.) placed on a Tecan worktable, and all liquid handling was performed robotically. After centrifugation of the samples, the supernatants are pooled in sets of four before they are analysed by liquid chromatography with tandem mass spectrometry detection (LC/MS/MS) using multiple reaction monitoring (MRM). Data are presented as intrinsic Clearance (CLint), μl/min/mg protein, calculated from the initial linear part of the compound disappearance curve.

[2] = target: T1, human recombinant chemokine CCR8 receptor (Homo sapiens, UniProt P51685); assay: CCL1 SPA binding assay; settings: inhibition of 125I CCL1 binding to membranes from CHO-K1 cells transfected with human CCR8
T1 construct: purchased Euroscreen ES-136-M; host or cells: CHO-K1 cells (transfected), membrane preparation
Experimental: Membranes from CHO-K1 cells transfected with human recombinant chemokine CCR8 receptor (ES-136-M) were purchased from Euroscreen. Membrane preparations are stored at −70 C in 7.5 mM Tris-Cl pH 7.5, 12.5 mM MgCl2, 0.3 mM EDTA, 1 mM EGTA, 250 mM sucrose until used.
The CCR8 membranes (50.6 mg/ml) were preincubated with Wheat Germ Agglutinin SPA beads (4.05 mg/ml) in assay buffer (50 mM HEPES, 1 mM CaCl2x2H2O, 5 mM MgCl2x6H2O, 75 mM NaCl, 0.1% BSA) at pH=7.4 for 2 hours on ice. A 10-point dose-response curve (final concentrations 50 μM, 16.7 μM, 5.6 μM, 1.9 μM, 0.62 μM, 0.21 μM, 0.069 μM, 0.023 μM) was prepared by diluting compounds by serial dilution 1:3 in DMSO. In the screening plate (Polystyrene NBS plates, Costar Corning 3604) 1 μl from the DMSO solutions of compounds was transferred into each well. 1 μl of DMSO was added to the blank control wells and 1 μl unlabeled CCL1 (300 nM) was added to background control wells. 50 μl of the SPA bead-membrane mixture was added into each well. Finally, 50 μl. ([…]) ^125I CCL1 (2000 Ci/mM) was added to each well. Plates were then incubated at RT with shaking (700 rpm) for 90 minutes followed by 30 minutes at RT without shaking. The plate was read in a Wallac MicroBeta counter for 2 minutes/well.

`COc1ccccc1Oc1ccccc1CN1CCC2(CC1)CCN(C(=O)c1cccn(C)c1=O)CC2` [Example 1, 3-({9-[2-(2-methoxyphenoxy)benzyl]-3,9-diazaspiro[5.5]undec-3-yl}carbonyl)-1-methylpyridin-2(1H)-one] showed a microsomal CLint at 2.5 μM [1] of 15.7 µL/min/mg and an IC50 [2] of 44 nM.
